No constants are given. Whether binding was seen depends on the method and setting. In cells and extracts the contact can be indirect. These calls come from enrichment with a bait or labelling near it, and not all partners need be listed. Sequences can lack the tags named with a protein.
T1: MeeF-FLAG (Bacillus subtilis) (UniProt O34447)
T1 sequence: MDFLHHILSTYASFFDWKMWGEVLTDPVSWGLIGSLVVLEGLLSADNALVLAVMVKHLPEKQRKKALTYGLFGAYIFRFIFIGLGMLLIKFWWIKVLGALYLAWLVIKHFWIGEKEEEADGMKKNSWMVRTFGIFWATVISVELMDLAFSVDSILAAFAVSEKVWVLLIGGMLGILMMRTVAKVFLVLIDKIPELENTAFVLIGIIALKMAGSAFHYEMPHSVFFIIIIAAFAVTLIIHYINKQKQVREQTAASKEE

T2: MeeY-FLAG (Bacillus subtilis) (UniProt O34997)
T2 sequence: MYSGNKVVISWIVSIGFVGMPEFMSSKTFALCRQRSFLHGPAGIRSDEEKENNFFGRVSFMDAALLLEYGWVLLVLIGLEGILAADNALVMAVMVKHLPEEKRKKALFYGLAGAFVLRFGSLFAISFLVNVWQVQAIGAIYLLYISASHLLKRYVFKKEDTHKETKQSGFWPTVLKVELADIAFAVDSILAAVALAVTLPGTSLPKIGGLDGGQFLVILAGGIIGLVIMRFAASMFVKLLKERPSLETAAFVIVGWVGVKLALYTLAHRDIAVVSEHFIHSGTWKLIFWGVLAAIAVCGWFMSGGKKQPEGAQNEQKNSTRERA


target: T1, MeeF-FLAG (Bacillus subtilis); assay: affinity purification with mass spectrometry; C-terminally FLAG-tagged bait captured on anti-FLAG M2 magnetic beads from B. subtilis lysate (overnight LB culture with 50 uM Mn; lysozyme, sonication, DNase, 1% Triton X-100), 30 °C 3 h, three PBS washes; eluted by heating at 95 °C for 10 min; LC-MS/MS, at least 2 peptides

binding | Binder
binds | OppB (protein, UniProt P24138 1-311) MLKYIGRRLVYMIITLFVIVTVTFFLMQAAPGGPFSGEKKLPPEIEANLNAHYGLDKPLFVQYVSYLKSVAMWDFGPSFKYKGQSVNDLISSGFPVSFTLGAEAILLALALGVLFGVIAALYHNKWQDYTVAILTIFGISVPSFIMAAVLQYVFSMKLGLFPVAGWDSWAYTFLPSIALASMPMAFIARLSRSSMIEVLNSDYIRTAKAKGLSRPAVTVRHAIRNALLPVVTYMGPMAAQVLTGSFIIETIFGIPGLGAHFVNSITNRDYTVIMGVTVFFSVILLLCVLIVDVLYGIIDPRIKLSKAKKGA
binds | FtsA (protein, UniProt P28264 1-440) MNNNELYVSLDIGTSNTKVIVGEMTDDSLNIIGVGNVPSEGLKKGSIVDIDETVHSIRKAFDQAERMVGFPLRKAIVGVNGNYINIQDTNGVVAVSSENKEIQVEDVRRVMEAAQVVSVPHEQLIVDVIPKQFIVDGRDEITDPKKMLGVRLEVEGTLITGSKTILHNLLRCVERAGIEITDICLQPLAAGSAALSKDEKNLGVALIDIGGGSTTIAVFQNGHLTSTRVIPLGGENITKDISIGLRTSTEEAERVKKQLGHAYYDEASEDEIFEVTVIGTNQKQTFTQQEAANIIEARVEEILEIVSEELRSMGITDLPGGFVLTGGQAAMPGVMSLAQDVLQNNVRVASPNYIGVRDPQYMTGVGLIQFACRNARIQGRKIGFKMPEEAIQEIAVSSSEEQEQHHHQNEVQQRPKGKQKTQAEHNKQSKMKKLLSMFWE
binds | NupN (protein, UniProt O05252 23-359) CGNSEKSSGSGEGKNKFSVAMVTDVGGVDDKSFNQSAWEGIQAFGKENGLKKGKNGYDYLQSKSDADYTTNLNKLARENFDLIYGVGYLMEDSISEIADQRKNTNFAIIDAVVDKDNVASITFKEQEGSFLVGVAAALSSKSGKIGFVGGMESELIKKFEVGFRAGVQAVNPKAVVEVKYAGGFDKADVGKATAESMYKSGVDVIYHSAGATGTGVFTEAKNLKKEDPKRDVWVIGVDKDQYAEGQVEGTDDNVTLTSMVKKVDTVVEDVTKKASDGKFPGGETLTYGLDQDGVGISPSKQNLSDDVIKAVDKWKKKIIDGLEIPATEKELKTFKAE
binds | HtpX (protein, UniProt O31657 1-298) MAKRIFLFILTNILVLTTIGIVLSVLSSVTGVGTYFTADGGIDPMALLVFSLVVGFVGSFTSLAISRWMAKTMMGVRVLNPKKHSLSYEEQQLVDRVHRLSRSAGLTKMPEVGIYRSPEVNAFATGPSKRRSLVAVSSGLLEQMDDAAVEGVLAHEVAHITNGDMVTMTLLQGIVNTFVVFLSRIAAWIASRFVKEDLAPIVHFIAMIIFQIVFSILGSLVVFAYSRHREFHADRGGADLAGKDKMIHALRTLKSYSSRILEDDQTAVQTLKINGKKRSSLFSTHPDLDERIRRLEAK
binds | SecY (protein, UniProt P16336 1-431) MFKTISNFMRVSDIRNKIIFTLLMLIVFRIGAFIPVPYVNAEALQAQSQMGVFDLLNTFGGGALYQFSIFAMGITPYITASIIIQLLQMDVVPKFTEWSKQGEVGRRKLAQFTRYFTIVLGFIQALGMSYGFNNLANGMLIEKSGVSTYLIIALVLTGGTAFLMWLGEQITSHGVGNGISIIIFAGIVSSIPKTIGQIYETQFVGSNDQLFIHIVKVALLVIAILAVIVGVIFIQQAVRKIAIQYAKGTGRSPAGGGQSTHLPLKVNPAGVIPVIFAVAFLITPRTIASFFGTNDVTKWIQNNFDNTHPVGMAIYVALIIAFTYFYAFVQVNPEQMADNLKKQGGYIPGVRPGKMTQDRITSILYRLTFVGSIFLAVISILPIFFIQFAGLPQSAQIGGTSLLIVVGVALETMKQLESQLVKRNYRGFMKN
binds | YrbF (protein, UniProt O32052 1-89) MMTGTLGTLVPIILMFAVLYFLLIRPQQKQQKAVRQMQEELKKGDSVVTIGGLHGTVDSIDESKVVIKTGDNTRLTFDRRAIREVSAAE
binds | GlcD (protein, UniProt P94535 1-470) MITKDVKEQLIQVSGPENFDDSNAGRLVYSYDATPQYQSMPDAVIAPRNTDEISRILTICSEHRVPIVPRGSGTNLCGGTCPTEGGLVLLFKHMNQILEIDEENLTATVQPGVITLDMIRAVESKGLFYPPDPSSMKISTIGGNINENSGGLRGLKYGVTRDYVIGLEVVLANGDIIRTGGKLAKDVAGYDLTRLFVGSEGTLGIVTEAIVKLVPKPETKKTLLALYENIDAAAQTVSDIIAAKIIPATLEFLDQPTLLVIEDYAKIGLPTSAKAVLLIEQDGPFETVERDMEKIEAICKKGDAVSVQTAQTEEEAFALTEARRSALSALARLKPTTILEDATVPRSEIANMVKAINDIAAKYDISICTFGHAGDGNLHPTCTTDIRNKDEMERVEQAFAEIFEKAIELGGTITGEHGVGEMKAPYLEMKLKKEGIDAMKALKAAFDPRNILNPGKMFAKDARKRVVAER
binds | QoxB (protein, UniProt P34956 1-649) MKFKWDEFFVTGDPLILGAQVSIALSTIAIIFVLTYFKKWKWLWSEWITTVDHKKLGIMYIISAVIMLFRGGVDGLMMRAQLALPNNSFLDSNHYNEIFTTHGTIMIIFMAMPFLIGLINVVVPLQIGARDVAFPYLNNLSFWTFFVGAMLFNISFVIGGSPNAGWTSYMPLASNDMSPGPGENYYLLGLQIAGIGTLMTGINFMVTILKMRTKGMTLMRMPMFTWTTLITMVIIVFAFPVLTVALALLSFDRLFGAHFFTLEAGGMPMLWANLFWIWGHPEVYIVILPAFGIFSEIISSFARKQLFGYKAMVGSIIAISVLSFLVWTHHFFTMGNSASVNSFFSITTMAISIPTGVKIFNWLFTMYKGRISFTTPMLWALAFIPNFVIGGVTGVMLAMAAADYQYHNTYFLVSHFHYVLIAGTVFACFAGFIFWYPKMFGHKLNERIGKWFFWIFMIGFNICFFPQYFLGLQGMPRRIYTYGPNDGWTTLNFISTVGAFMMGVGFLILCYNIYYSFRYSTREISGDSWGVGRTLDWATSSAIPPHYNFAVLPEVKSQDAFLHMKEEKTELYPESKFKKIHMPSNSGRPFFMSVAFGLAGFGLVFEWYWMGVVGLIGVLLCMVLRSFEYDNGYYISVDEIKETERKISE
binds | FhuD (protein, UniProt P37580 24-315) CGNNSESKGSASDSKGAETFTYKAENGNVKIPKHPKRVVVMADGYYGYFKTLGINVVGAPENVFKNPYYKGKTNGVENIGDGTSVEKVIDLNPDLIIVWTTQGADIKKLEKIAPTVAVKYDKLDNIEQLKEFAKMTGTEDKAEKWLAKWDKKVAAAKTKIKKAVGDKTISIMQTNGKDIYVFGKDFGRGGSIIYKDLGLQATKLTKEKAIDQGPGYTSISLEKLPDFAGDYIFAGPWQSGGDDGGVFESSIWKNLNAVKNGHVYKMDPIGFYFTDPISLEGQLEFITESLTK
binds | MsmX (protein, UniProt P94360 1-365) MAELRMEHIYKFYDQKEPAVDDFNLHIADKEFIVFVGPSGCGKSTTLRMVAGLEEISKGDFYIEGKRVNDVAPKDRDIAMVFQNYALYPHMTVYDNIAFGLKLRKMPKPEIKKRVEEAAKILGLEEYLHRKPKALSGGQRQRVALGRAIVRDAKVFLMDEPLSNLDAKLRVQMRAEIIKLHQRLQTTTIYVTHDQTEALTMATRIVVMKDGKIQQIGTPKDVYEFPENVFVGGFIGSPAMNFFKGKLTDGLIKIGSAALTVPEGKMKVLREKGYIGKEVIFGIRPEDIHDELIVVESYKNSSIKAKINVAELLGSEIMIYSQIDNQDFIARIDARLDIQSGDELTVAFDMNKGHFFDSETEVRIR
binds | FloT (protein, UniProt O32076 1-509) MTMPIIMIIGVVFFLLIALIAVFITKYRTAGPDEALIVTGSYLGNKNVHVDEGGNRIKIVRGGGTFVLPVFQQAEPLSLLSSKLDVSTPEVYTEQGVPVMADGTAIIKIGGSIGEIATAAEQFLGKSKDDREQEAREVLEGHLRSILGSMTVEEIYKNREKFSQEVQRVASQDLAKMGLVIVSFTIKDVRDKNGYLESLGKPRIAQVKRDADIATAEADKETRIKRAEADKDAKKSELERATEIAEAEKINQLKMAEFRREQDTAKANADQAYDLETARARQQVTEQEMQVKIIERQKQIELEEKEILRRERQYDSEVKKKADADRYSVEQSAAAEKAKQLAEADAKKYSIEAMAKAEAEKVRIDGLAKAEAEKAKGETEAEVIRLKGLAEAEAKEKIAAAFEQYGQAAIFDMIVKMLPEYAKQAAAPLSNIDKITVVDTGGSGESSGANKVTSYATNLMSSLQESLKASSGIDVKEMLENFSGKGNVKQSINELTNEIKEAKTIQKSE

target: T2, MeeY-FLAG (Bacillus subtilis); assay: as above

binding | Binder
binds | QoxA (protein, UniProt P34957 26-321) CSNASVLDPKGPVAEQQSDLILLSIGFMLFIVGVVFVLFTIILVKYRDRKGKDNGSYNPEIHGNTFLEVVWTVIPILIVIALSVPTVQTIYSLEKAPEATKDKEPLVVYATSVDWKWVFSYPEQDIETVNYLNIPVDRPILFKISSADSMASLWIPQLGGQKYAMAGMLMDQYLQADKVGTYEGRNANFTGEHFADQEFDVNAVTEKDFNSWVKKTQNEAPKLTKEKYDELMLPENVDELTFSSTHLKYVDHGQDAEYAMEARKRLGYQAVSPHSKTDPFENVKKNEFKKSDDTEE
binds | AtpF (protein, UniProt P37814 1-170) MSQLPLELGLSFNGGDILFQLLAMLILLALLKKYALGPLLNIMKQREDHIAGEITSAEEKNKEAQQLIEEQRVLLKEARQESQTLIENAKKLGEKQKEEIIQAARAESERLKEAARTEIVKEKEQAVSALREQVASLSVMIASKVIEKELDEQAQEKLIQDYLKEVGESR
